According to doi:10.1101/2025.07.02.662776:
These are yes or no findings as the source states them, for the method shown. Some results given as binding are weak or reduced against the parent protein; the word gives no strength. Where a sequence is shown, tags or fusion partners need not be part of it.

Chains of the proteins cited; added tags and fusions are not shown.
UniProt P23198, whole entry: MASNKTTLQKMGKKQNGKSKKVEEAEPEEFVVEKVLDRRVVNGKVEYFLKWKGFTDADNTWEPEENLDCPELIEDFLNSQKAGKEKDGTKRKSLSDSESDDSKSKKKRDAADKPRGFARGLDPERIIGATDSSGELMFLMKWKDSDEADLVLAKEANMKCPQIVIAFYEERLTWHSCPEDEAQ
UniProt Q6PDQ2, whole entry: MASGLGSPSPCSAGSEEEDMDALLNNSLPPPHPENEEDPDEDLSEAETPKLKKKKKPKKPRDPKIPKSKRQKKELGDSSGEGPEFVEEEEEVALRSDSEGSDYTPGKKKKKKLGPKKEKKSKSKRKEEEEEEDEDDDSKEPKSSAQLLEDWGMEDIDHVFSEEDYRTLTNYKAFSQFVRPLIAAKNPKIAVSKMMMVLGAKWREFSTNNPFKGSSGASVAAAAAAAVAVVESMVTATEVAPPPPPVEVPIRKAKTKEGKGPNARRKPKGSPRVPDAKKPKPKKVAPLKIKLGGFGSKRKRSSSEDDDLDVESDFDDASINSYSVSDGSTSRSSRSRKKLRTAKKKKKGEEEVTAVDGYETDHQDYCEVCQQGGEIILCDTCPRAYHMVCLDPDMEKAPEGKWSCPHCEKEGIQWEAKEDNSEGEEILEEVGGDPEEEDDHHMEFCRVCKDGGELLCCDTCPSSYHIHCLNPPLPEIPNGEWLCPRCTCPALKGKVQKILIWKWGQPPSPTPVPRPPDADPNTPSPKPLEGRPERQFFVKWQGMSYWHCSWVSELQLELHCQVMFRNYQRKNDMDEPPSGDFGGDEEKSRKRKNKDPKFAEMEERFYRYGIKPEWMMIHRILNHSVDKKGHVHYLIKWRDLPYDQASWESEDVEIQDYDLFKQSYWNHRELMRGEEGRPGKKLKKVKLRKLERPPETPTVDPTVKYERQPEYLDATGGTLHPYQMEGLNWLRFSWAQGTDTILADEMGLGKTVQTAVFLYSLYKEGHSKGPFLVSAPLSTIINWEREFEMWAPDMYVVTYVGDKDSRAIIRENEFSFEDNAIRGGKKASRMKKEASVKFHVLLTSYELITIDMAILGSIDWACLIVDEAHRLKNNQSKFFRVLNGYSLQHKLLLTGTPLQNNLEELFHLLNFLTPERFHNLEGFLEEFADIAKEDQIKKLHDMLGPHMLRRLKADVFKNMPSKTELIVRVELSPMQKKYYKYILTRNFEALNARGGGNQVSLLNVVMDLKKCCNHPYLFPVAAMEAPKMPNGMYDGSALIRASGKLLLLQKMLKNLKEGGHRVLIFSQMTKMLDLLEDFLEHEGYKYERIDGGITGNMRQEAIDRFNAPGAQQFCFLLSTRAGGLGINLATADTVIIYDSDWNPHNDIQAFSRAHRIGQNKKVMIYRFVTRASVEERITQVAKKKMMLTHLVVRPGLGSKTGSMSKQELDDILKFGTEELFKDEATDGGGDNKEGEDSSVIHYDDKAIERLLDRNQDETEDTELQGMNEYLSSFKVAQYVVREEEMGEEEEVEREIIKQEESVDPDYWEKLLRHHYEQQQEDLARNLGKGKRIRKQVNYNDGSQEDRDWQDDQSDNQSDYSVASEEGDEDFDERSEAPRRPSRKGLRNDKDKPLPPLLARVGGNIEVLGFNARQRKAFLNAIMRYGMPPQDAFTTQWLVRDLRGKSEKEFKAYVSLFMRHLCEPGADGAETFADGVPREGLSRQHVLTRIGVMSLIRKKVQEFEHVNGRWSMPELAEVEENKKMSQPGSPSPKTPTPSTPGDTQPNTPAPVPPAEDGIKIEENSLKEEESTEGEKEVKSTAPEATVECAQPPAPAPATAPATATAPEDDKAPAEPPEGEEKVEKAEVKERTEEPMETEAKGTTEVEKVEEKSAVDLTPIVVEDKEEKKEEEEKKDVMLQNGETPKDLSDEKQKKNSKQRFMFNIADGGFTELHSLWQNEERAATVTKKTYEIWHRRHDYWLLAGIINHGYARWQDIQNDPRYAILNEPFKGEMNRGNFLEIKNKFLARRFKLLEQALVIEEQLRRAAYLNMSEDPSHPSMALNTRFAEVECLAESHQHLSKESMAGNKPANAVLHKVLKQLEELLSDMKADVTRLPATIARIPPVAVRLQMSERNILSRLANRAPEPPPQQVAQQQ

B1: His6-tagged ADNP (recombinant, full length) (protein, UniProt Q9Z103 1-1108)
chain: MFQLPVNNLGSLRKARKTVKKILSDIGLEYCKEHIEDFKQFEPNDFYLKNTTWEDVGLWDPSLTKNQDYRTKPFCCSACPFSSKFFSAYKSHFRNVHSEDFENRILLNCPYCTFNADKKTLETHIKIFHAPNSSAPSSSLSTFKDKNKNDGLKPKQADNVEQAVYYCKKCTYRDPLYEIVRKHIYREHFQHVAAPYIAKAGEKSLNGAVSLGTNAREECNIHCKRCLFMPKSYEALVQHVIEDHERIGYQVTAMIGHTNVVVPRAKPLMLIAPKPQDKKGMGLPPRISSLASGNVRSLPSQQMVNRLSIPKPNLNSTGVNMMSNVHLQQNNYGVKSVGQSYGVGQSVRLGLGGNAPVSIPQQSQSVKQLLPSGNGRSFGLGAEQRPPAAARYSLQTANTSLPPGQVKSPSVSQSQASRVLGQSSSKPPPAATGPPPSNHCATQKWKICTICNELFPENVYSVHFEKEHKAEKVPAVANYIMKIHNFTSKCLYCNRYLPTDTLLNHMLIHGLSCPYCRSTFNDVEKMAAHMRMVHIDEEMGPKTDSTLSFDLTLQQGSHTNIHLLVTTYNLRDAPAESVAYHAQNNAPVPPKPQPKVQEKADVPVKSSPQAAVPYKKDVGKTLCPLCFSILKGPISDALAHHLRERHQVIQTVHPVEKKLTYKCIHCLGVYTSNMTASTITLHLVHCRGVGKTQNGQDKTNAPSRLNQSPGLAPVKRTYEQMEFPLLKKRKLEEDADSPSCFEEKPEEPVVLALDPKGHEDDSYEARKSFLTKYFNKQPYPTRREIEKLAASLWLWKSDIASHFSNKRKKCVRDCEKYKPGVLLGFNMKELNKVKHEMDFDAEWLFENHDEKDSRVNASKTVDKKHNLGKEDDSFSDSFEHLEEESNGSGSPFDPVFEVEPKIPSDNLEEPVPKVIPEGALESEKLDQKEEEEEEEEEDGSKYETIHLTEEPAKLMHDASDSEVDQDDVVEWKDGASPSESGPGSQQISDFEDNTCEMKPGTWSDESSQSEDARSSKPAAKKKATVQDDTEQLKWKNSSYGKVEGFWSKDQSQWENASENAERLPNPQIEWQNSTIDSEDGEQFDSMTDGVADPMHGSLTGVKLSSQQA

Molecular target: Strep-tagged HP1γ (recombinant, full length) (UniProt P23198)
Test: co-purification

Molecule | binding
His6-tagged CHD4 (recombinant, full length) (from UniProt Q6PDQ2 1-1915) | binds
B1 | binds
